These are yes or no findings as the source states them, for the method shown. Some entries that bind do so weakly or less than the wild type.
Key:
complement factor Clq [1] = target: complement factor Clq (UniProt P02745); test: ELISA: antibody coated on the plate in a dilution series (dose axis), constant C1q added, detected with anti-human C1q-HRP, OD 450 nm [B]
complement factor Clq [2] = target: complement factor Clq (UniProt P02745); test: ELISA, antibody coated in serial dilution, constant C1q, anti-C1q-HRP

Chains of the proteins cited; added tags and fusions are not shown. Lines headed by an entry give the natural chain unless they say otherwise; changes in a name come on top.
UniProt P02745: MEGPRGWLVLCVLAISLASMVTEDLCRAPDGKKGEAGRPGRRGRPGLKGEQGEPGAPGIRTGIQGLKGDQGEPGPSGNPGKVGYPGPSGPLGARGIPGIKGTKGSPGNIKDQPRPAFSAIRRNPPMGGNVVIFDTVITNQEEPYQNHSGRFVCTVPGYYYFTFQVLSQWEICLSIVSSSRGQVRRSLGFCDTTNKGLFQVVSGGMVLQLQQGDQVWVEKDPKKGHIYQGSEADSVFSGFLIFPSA

binding (complement factor Clq [1]): binds | binding (complement factor Clq [2]): binds
B1: mAb12433 (antibody, human IgG1, kappa, V domains shown)
VH: QVQLVQSGAEVKKPGESLKISCKGSGYSFTNYYIHWVRQMPGKGLEWMGAIYPDNSDTTYSPSFQGQVTISADKSISTAYLQWSSLKASDTAMYYCARGADIWGQGTLVTVSS
VL: DIQMTQSPSSLSASVGDRVTITCRASQDIDPYLSNWYQQKPGKAPKLLIYDASNLQSGVPSRFSGSGSGTDFTLTISSLQPEDFATYYCQQTTSHPYTFGQGTKVEIKR
